# Measurements: PubChem BioAssay AID2551 (National Center for Advancing Translational Sciences (NCATS), 2010)
# The chains behind the UniProt entries cited, without tags or fusion partners. Where a name states a change or a piece, a line headed by the entry shows the natural chain unless it says otherwise.
# UniProt P51450: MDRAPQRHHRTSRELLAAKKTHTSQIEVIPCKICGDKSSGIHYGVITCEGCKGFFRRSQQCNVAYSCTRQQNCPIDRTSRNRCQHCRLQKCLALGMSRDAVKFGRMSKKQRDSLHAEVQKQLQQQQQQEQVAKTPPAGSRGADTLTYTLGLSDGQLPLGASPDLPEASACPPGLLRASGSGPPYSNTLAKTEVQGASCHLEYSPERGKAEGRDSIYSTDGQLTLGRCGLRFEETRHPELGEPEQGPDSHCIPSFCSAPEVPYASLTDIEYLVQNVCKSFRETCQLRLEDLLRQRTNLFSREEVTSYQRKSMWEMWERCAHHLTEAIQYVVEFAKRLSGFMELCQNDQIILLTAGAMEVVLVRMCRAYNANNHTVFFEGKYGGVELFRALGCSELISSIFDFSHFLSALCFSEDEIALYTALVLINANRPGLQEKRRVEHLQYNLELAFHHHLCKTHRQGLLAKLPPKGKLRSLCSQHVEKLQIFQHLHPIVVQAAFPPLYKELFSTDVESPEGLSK
# In all, about 310,000 compounds went through this assay and about 17,000 (5.5%) were called active. The shares of active, inactive and inconclusive entries below differ from those in the screen. Calls follow the shape of the dose curve; as a rule, active = well fitted inhibition curve with a large enough effect; inconclusive = small, poorly fitted or top-dose-only effect, or effect the other way; inactive = no such curve, though single readings can be large or run the other way. Where the call is inconclusive, the potency comes from a doubtful curve fit.
# Target: Nuclear receptor ROR-gamma (Mus musculus) (UniProt P51450)
# Experiment: qHTS for inhibitors of ROR gamma transcriptional activity; also: nearly all actives have a fitted effect of over 60% in size
# Details: Drosophila S2 Gal4-RORgamma UAS-luciferase reporter, 20 h; activity change, negative = inhibition: at 53.6 µM (top of the series)
# Summary of the method: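 Using a luciferase readout, inhibitors were identified by reduced reporter activity in Drosophila cells coexpressing a copper-inducible Gal4–ROR gamma fusion and UAS-driven Photinus luciferase, incubated 20 hr after 700 uM copper sulfate.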
# % is scaled to controls: 0 for no effect and ±100 for the full control effect; potency is read from the fitted curve at half-maximal effect.
Compound,"activity change, negative = inhibition",Potency
CCC1=C2CC[C@H]3C(=O)N(C)C(=O)[C@H]3[C@H]2[C@@]2(Cc3ccccc3)C(=NCCc3c[nH]c4ccccc34)OC(=O)N2C1=O,inactive: 44.8%,–
O=C(CCCc1nc(-c2ccccc2)no1)NC1CCCC1,–,"inconclusive: 12.6 µM [activator, single point]"
O=C(NCc1ccccc1)C(c1ccc(F)cc1)N(Cc1cccs1)C(=O)c1cnccn1 (configuration not stated),inactive: 10.5%,–
O=C1CN(C(=O)NCC(=O)N2CCCC2)c2ccccc2N1,inactive: -3.25%,–
Cc1cc(C)n2nc(SCc3cc(=O)oc4ccc5ccccc5c34)nc2n1,inactive: -37.8%,–
O=[N+]([O-])c1cc2c(cc1/C=N/Nc1nc(Nc3ccccc3)nc(N3CCCCC3)n1)OCO2,–,active: 3.16 µM
COc1ccc(Sc2ncnc3onc(C)c23)cc1,–,"inconclusive: 11.2 µM [inhibitor, single point]"
CNC(=O)c1[nH]cnc1C(=O)Nc1ccccc1C,–,active: 11.2 µM
O=C1c2cccc3c(N4CCCCC4)ccc(c23)C(=O)N1c1ccccn1,–,"inconclusive: 6.31 µM [activator, partial curve]"
O=C(NC1CCCCCC1)c1ccc(CS(=O)(=O)Cc2ccc(F)cc2)o1,–,"inconclusive: 12.6 µM [activator, partial curve, poor fit]"
CCCCOc1ccc(C(=O)Nc2ccc(N3CCN(C(C)=O)CC3)cc2)cc1,inactive: 1.71%,–
COc1ccc(C(=O)NCCCCNC(=O)c2ccc(OC)c(OC)c2)cc1OC,inactive: -2.7%,–
O=C1COc2ccc(-c3csc(=Nc4ccc(OC(F)F)cc4)n3CC3CCCO3)cc2N1 (configuration not stated),–,"inconclusive: 14.1 µM [activator, single point]"
Cc1cc(C(=O)NC2CC(C)(C)Cc3c2cnn3-c2ccccc2)n[nH]1 (configuration not stated),–,"inconclusive: 35.5 µM [activator, single point]"
COc1cc(S(=O)(=O)NCCCn2ccnc2)ccc1F,inactive: 5.63% [at 1.91 µM],–
CCNC(=O)/C(=C/c1ccc2c(c1)OCO2)NC(=O)c1ccc(Br)cc1,–,"inconclusive: 1.12 µM [activator, full curve, poor fit]"
Cc1nn(-c2ccccc2)c(Cl)c1CN(C(=O)CCl)c1cccc2ccccc12,–,active: 14.1 µM
OCCCCCNc1ncnc2ccccc12,–,"inconclusive: 11.2 µM [activator, partial curve]"
O=C(NC1CC1)C1CCN(C(=O)c2ccccc2Cl)CC1,inactive: 1.13%,–
Cc1nn(CCC(N)=S)c2nc(-c3cccs3)cc(C(F)(F)F)c12,–,active: 7.08 µM
O=C(Nc1ccccc1)C1CCN(C(=O)c2ccco2)CC1,inactive: 8.87%,–
CN(C)S(=O)(=O)c1cccc(NC(=O)CSc2nc3c(cc2C#N)C(=O)CC(C)(C)C3)c1,–,"inconclusive: 11.2 µM [activator, partial curve]"

# Some of the entries so far, tab-delimited.
Compound	activity change, negative = inhibition	Potency
O=C(NCc1ccccc1)C(c1ccc(F)cc1)N(Cc1cccs1)C(=O)c1cnccn1 (configuration not stated)	inactive: 10.5%	–
O=C1CN(C(=O)NCC(=O)N2CCCC2)c2ccccc2N1	inactive: -3.25%	–
